From paper doi:10.1101/2025.06.11.659033 (bioRxiv, 2025)
Results are given in words; binding and its absence hold for the method and conditions named. For some of these results: Binding seen in cells or lysates may run through a third protein. Some results given as binding are weak or reduced against the parent protein; the word gives no strength. For some of these results: Tags and fused reporters may be left off the sequences shown.

Amino acid sequences for entries named in this document (tags omitted).
UniProt P0A6Y8, whole entry: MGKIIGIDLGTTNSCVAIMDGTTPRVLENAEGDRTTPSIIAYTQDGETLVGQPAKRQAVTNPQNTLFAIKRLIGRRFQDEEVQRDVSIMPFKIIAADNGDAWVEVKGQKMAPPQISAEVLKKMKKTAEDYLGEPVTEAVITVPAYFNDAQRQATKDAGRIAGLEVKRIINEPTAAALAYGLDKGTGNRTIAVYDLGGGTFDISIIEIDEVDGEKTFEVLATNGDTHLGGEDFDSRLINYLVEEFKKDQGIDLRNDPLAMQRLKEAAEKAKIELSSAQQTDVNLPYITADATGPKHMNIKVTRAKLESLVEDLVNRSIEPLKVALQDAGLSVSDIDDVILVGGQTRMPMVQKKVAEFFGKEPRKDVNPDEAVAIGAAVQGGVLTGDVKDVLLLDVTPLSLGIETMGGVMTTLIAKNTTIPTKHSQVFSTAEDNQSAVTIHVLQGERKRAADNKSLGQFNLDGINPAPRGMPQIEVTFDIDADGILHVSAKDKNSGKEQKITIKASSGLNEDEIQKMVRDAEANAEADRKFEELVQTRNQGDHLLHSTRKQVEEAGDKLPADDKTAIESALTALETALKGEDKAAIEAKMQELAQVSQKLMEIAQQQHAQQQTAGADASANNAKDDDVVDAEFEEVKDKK
UniProt P0A6F5, whole entry: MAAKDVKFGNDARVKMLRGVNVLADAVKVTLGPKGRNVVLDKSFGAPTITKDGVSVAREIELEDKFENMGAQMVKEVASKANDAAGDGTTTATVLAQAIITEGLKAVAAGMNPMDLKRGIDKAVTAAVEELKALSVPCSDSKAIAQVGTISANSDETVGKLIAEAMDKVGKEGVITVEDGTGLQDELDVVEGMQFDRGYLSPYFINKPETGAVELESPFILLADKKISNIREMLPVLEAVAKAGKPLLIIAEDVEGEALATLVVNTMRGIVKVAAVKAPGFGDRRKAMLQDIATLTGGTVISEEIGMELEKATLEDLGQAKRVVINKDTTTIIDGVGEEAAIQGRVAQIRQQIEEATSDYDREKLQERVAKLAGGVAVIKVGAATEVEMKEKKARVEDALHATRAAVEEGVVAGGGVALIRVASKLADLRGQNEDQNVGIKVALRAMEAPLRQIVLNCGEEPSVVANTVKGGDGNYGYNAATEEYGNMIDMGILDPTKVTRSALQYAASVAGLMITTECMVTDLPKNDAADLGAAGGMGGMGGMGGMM

Tests used:
[1] = molecular target: T1, Heme detoxification protein from Plasmodium falciparum, full length (HDPpf) (Plasmodium falciparum) (UniProt Q8IL04); experiment: SAXS
T1 sequence: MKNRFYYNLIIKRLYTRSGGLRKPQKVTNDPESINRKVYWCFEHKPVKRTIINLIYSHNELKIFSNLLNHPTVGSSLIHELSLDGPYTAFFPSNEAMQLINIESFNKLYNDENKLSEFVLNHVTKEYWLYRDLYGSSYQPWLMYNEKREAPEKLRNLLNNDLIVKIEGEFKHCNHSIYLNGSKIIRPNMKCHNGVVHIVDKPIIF

[2] = molecular target: T1, Heme detoxification protein from Plasmodium falciparum, full length (HDPpf) (Plasmodium falciparum); experiment: SEC
[3] = molecular target: T2, MBP-HDPpf fusion protein (Plasmodium falciparum) (UniProt Q8IL04); experiment: ion exchange and hydrophobic interaction chromatography
T2 sequence: T1 sequence

[4] = molecular target: T3, HDPpf-GFP fusion protein (HDP-TEV-GFP-6His) (Plasmodium falciparum) (UniProt Q8IL04); experiment: co-elution in anion exchange chromatography
T3 sequence: T1 sequence

[5] = molecular target: T3, HDPpf-GFP fusion protein (HDP-TEV-GFP-6His) (Plasmodium falciparum); experiment: pull-down
[6] = molecular target: T2, MBP-HDPpf fusion protein (Plasmodium falciparum); experiment: pull-down
[7] = molecular target: T2, MBP-HDPpf fusion protein (Plasmodium falciparum); experiment: SEC

Measured: binding

DnaK (HSP70 chaperone) (from UniProt P0A6Y8 1-638)
binds: [1] | [2]

GroEL (HSP60 chaperonin) (from UniProt P0A6F5 1-548)
not listed: [1] | [2]
binds: all other assays above
